The values below come from PMC8998810.

No constants are given. Whether binding was seen depends on the method and setting. In cells and extracts the contact can be indirect. Some entries that bind do so weakly or less than the wild type. Tags and fused reporters may be left off the sequences shown.

For experiment [1], the target named is T1, RIN4-YC (full-length RPM1-interacting protein 4 fused with the C-terminus of YFP) (Arabidopsis) (UniProt Q8GYN5).
T1 sequence: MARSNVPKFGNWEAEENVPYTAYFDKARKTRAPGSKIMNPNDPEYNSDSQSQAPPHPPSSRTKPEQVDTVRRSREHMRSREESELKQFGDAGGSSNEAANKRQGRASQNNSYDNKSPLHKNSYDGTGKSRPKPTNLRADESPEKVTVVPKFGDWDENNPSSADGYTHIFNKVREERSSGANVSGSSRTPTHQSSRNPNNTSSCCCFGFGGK
The experiment can be described thus: split reporter; BiFC with split YFP; YN-AHAs and RIN4-YC co-infiltrated by Agrobacterium into N. benthamiana leaves; fluorescence checked at 3 dpi; empty YN as negative control.

In experiment [2] the target is T2, Cluc-RIN4 (full-length RIN4 fused with the C-terminus of luciferase) (Arabidopsis) (UniProt Q8GYN5).
T2 sequence: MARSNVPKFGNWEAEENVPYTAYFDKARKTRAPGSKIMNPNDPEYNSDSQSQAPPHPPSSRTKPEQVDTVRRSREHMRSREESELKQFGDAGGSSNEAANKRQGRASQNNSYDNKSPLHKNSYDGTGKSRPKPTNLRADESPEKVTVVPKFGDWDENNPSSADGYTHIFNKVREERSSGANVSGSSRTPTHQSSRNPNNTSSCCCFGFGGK
As to the kind of experiment: split reporter; luciferase complementation imaging (LCI); Nluc-AHA1/5 and Cluc-RIN4 co-infiltrated by Agrobacterium into N. benthamiana leaves; 1 mM luciferin, imaged at 3 dpi; empty Cluc as negative control.

B1: YN-AHA5 (full-length PM H+-ATPase AHA5 fused with the N-terminus of YFP) (protein, UniProt Q9SJB3 1-949)
chain: MSELDHIKNESVDLVRIPMEEVFEELKCTKQGLTANEASHRLDVFGPNKLEEKKESKLLKFLGFMWNPLSWVMEVAALMAIALANGGGRPPDWQDFVGIVCLLLINSTISFIEENNAGNAAAALMAGLAPKTKVLRDNQWSEQEASILVPGDVISIKLGDIIPADARLLDGDPLKIDQSSLTGESIPVTKNPSDEVFSGSICKQGEIEAIVIATGVHTFFGKAAHLVDNTNQIGHFQKVLTSIGNFCICSIALGIIVELLVMYPIQRRRYRDGIDNLLVLLIGGIPIAMPSVLSVTMATGSHRLFQQGAITKRMTAIEEMAGMDVLCCDKTGTLTLNKLTVDKNLVEVFAKGVGKEHVFLLAARASRIENQDAIDAAIVGMLADPKEARAGVREVHFFPFNPVDKRTALTYVDSDGNWHRASKGAPEQILNLCNCKEDVRRKVHGVIDKFAERGLRSLAVARQEVLEKKKDAPGGPWQLVGLLPLFDPPRHDSAETIRRALNLGVNVKMITGDQLAIGKETGRRLGMGTNMYPSSALLGQVKDSSLGALPVDELIEKADGFAGVFPEHKYEIVHRLQQRNHICGMTGDGVNDAPALKKADIGIAVVDATDAARGASDIVLTEPGLSVIISAVLTSRAIFQRMKNYTIYAVSITIRIVFGFMFIALIWQFDFSPFMVLIIAILNDGTIMTISKDRMKPSPQPDSWKLRDIFSTGVVLGGYQALMTVVFFWVMKDSDFFSNYFGVRPLSQRPEQMMAALYLQVSIISQALIFVTRSRSWSYAECPGLLLLGAFVIAQLVATFIAVYANWSFARIEGAGWGWAGVIWLYSFLTYIPLDLLKFGIRYVLSGKAWLNLLENKTAFTTKKDYGKEEREAQWAAAQRTLHGLQPAEKNNIFNEKNSYSELSQIAEQAKRRAEVVRLREINTLKGHVESVVKLKGLDIDTIQQHYTV
Regarding B1, in experiment [1], the binding result was “binds”.

B2: Nluc-AHA5 (full-length AHA5 fused with the N-terminus of luciferase) (protein, UniProt Q9SJB3 1-949)
chain: MSELDHIKNESVDLVRIPMEEVFEELKCTKQGLTANEASHRLDVFGPNKLEEKKESKLLKFLGFMWNPLSWVMEVAALMAIALANGGGRPPDWQDFVGIVCLLLINSTISFIEENNAGNAAAALMAGLAPKTKVLRDNQWSEQEASILVPGDVISIKLGDIIPADARLLDGDPLKIDQSSLTGESIPVTKNPSDEVFSGSICKQGEIEAIVIATGVHTFFGKAAHLVDNTNQIGHFQKVLTSIGNFCICSIALGIIVELLVMYPIQRRRYRDGIDNLLVLLIGGIPIAMPSVLSVTMATGSHRLFQQGAITKRMTAIEEMAGMDVLCCDKTGTLTLNKLTVDKNLVEVFAKGVGKEHVFLLAARASRIENQDAIDAAIVGMLADPKEARAGVREVHFFPFNPVDKRTALTYVDSDGNWHRASKGAPEQILNLCNCKEDVRRKVHGVIDKFAERGLRSLAVARQEVLEKKKDAPGGPWQLVGLLPLFDPPRHDSAETIRRALNLGVNVKMITGDQLAIGKETGRRLGMGTNMYPSSALLGQVKDSSLGALPVDELIEKADGFAGVFPEHKYEIVHRLQQRNHICGMTGDGVNDAPALKKADIGIAVVDATDAARGASDIVLTEPGLSVIISAVLTSRAIFQRMKNYTIYAVSITIRIVFGFMFIALIWQFDFSPFMVLIIAILNDGTIMTISKDRMKPSPQPDSWKLRDIFSTGVVLGGYQALMTVVFFWVMKDSDFFSNYFGVRPLSQRPEQMMAALYLQVSIISQALIFVTRSRSWSYAECPGLLLLGAFVIAQLVATFIAVYANWSFARIEGAGWGWAGVIWLYSFLTYIPLDLLKFGIRYVLSGKAWLNLLENKTAFTTKKDYGKEEREAQWAAAQRTLHGLQPAEKNNIFNEKNSYSELSQIAEQAKRRAEVVRLREINTLKGHVESVVKLKGLDIDTIQQHYTV
Turning to B2, the binding result in experiment [2] was “binds”.
